Test results reported in PubChem BioAssay AID504444 (National Center for Advancing Translational Sciences (NCATS), 2011).
Several values for one entry are separate records, joined by “and”; a condition that tells them apart may be missing. Equal entries are not always repeated. Hit rate of the full screen: of about 360,000 compounds, about 7,500 (2.1%) were called active. The inconclusive results got no clear call from the source; some entries with a clear call stand among them for comparison. Calls follow the shape of the dose curve; as a rule, active = well fitted inhibition curve with a large enough effect; inconclusive = small, poorly fitted or top-dose-only effect, or effect the other way; inactive = flat fitted curve, though single readings scatter. Potencies of inconclusive entries are doubtful fits and often do not repeat.

Test: Nrf2 qHTS screen for inhibitors; also: nearly all actives have a fitted effect of over 60% in size
Conditions: A549 ARE-Fluc reporter, luciferase luminescence, 18-24 h; activity change, negative = inhibition: at 46 µM (top of the series)
Summary of the method: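 Quantitative HTS in A549 cells stably bearing an antioxidant response element-firefly luciferase construct. Inhibition of Nrf2-driven transcription was scored by luminescence after 18-24 h of compound exposure at 37 °C.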
% is scaled to controls: 0 for no effect and ±100 for the full control effect; potency is read from the fitted curve at half-maximal effect.

Row | Structure (SMILES) | Potency | activity change, negative = inhibition
1 | Cc1ccc2nsnc2c1S(=O)(=O)N1CCN(C)CC1 | inconclusive: 3.66 µM [activator, full curve, poor fit] | 
2 | COc1ccc(C(=O)/C=C2/C(=O)Nc3ccccc32)cc1 | inactive | 
3 | Cc1occc1C(=O)/C(C#N)=C/c1ccc(O)c(Br)c1 | inactive | 
4 | COc1ccccc1C(=O)NC(=S)Nc1cccnc1Cl | inconclusive: 0.517 µM [activator, full curve, poor fit] | 
5 | N#Cc1c(C(F)(F)F)cc(-c2ccccc2)nc1SCC(=O)Nc1sc2c(c1C#N)CCC2 | inconclusive: 6.51 µM [falling, single point] | 
6 | Cn1c(=NC(=O)CCS(=O)(=O)c2ccccc2)sc2cc(F)ccc21 | inconclusive: 2.59 µM [activator, full curve] | 
7 | COc1cccc(C(=O)NNC2OC(CO)C(O)C2O)c1 (stereo unspecified) | inconclusive: 9.2 µM [activator, partial curve] | 
8 | O=C(Nc1ccc(NC(=S)NC(=O)c2ccccc2Cl)cc1)c1cccc(Cl)c1 | active: 18.4 µM | 
9 | CCC1CCCCN1C(=O)c1ccc2nc(Cc3ccc(OC)cc3)oc2c1 (stereo unspecified) | inconclusive: 2.91 µM [activator, full curve] | 
10 | CCN1CCN(Cc2nc3cc(NC(=O)c4ccccc4[N+](=O)[O-])ccc3n2CC)CC1 | inactive | 
11 | O=C(Nc1cccc(F)c1)c1ccc2c(c1)OCO2 | inconclusive: 9.2 µM [activator, single point] | 
12 | COc1ccc(NC(=O)c2ccc3c(c2)c(C)c(C)n3Cc2ccc(F)cc2)cc1 | inconclusive: 29.1 µM [activator, single point] | 
13 | Cc1oc(-c2ccc(Cl)cc2)nc1CS(=O)CC(=O)NC1CC1 (stereo unspecified) | inconclusive: 25.9 µM [falling, partial curve, poor fit] | 
14 | COc1cc(-c2nc(-c3ccccc3)c(-c3cccs3)[nH]2)cc(OC)c1O | inconclusive: 29.1 µM [falling, single point] | 
15 | Cn1c(=O)[nH]c(=O)c2c1nc(N1CCCCCC1)n2CC(N)=O | inconclusive: 0.82 µM [falling, partial curve, poor fit] | 
16 | CCOc1cc(-c2ccc(N)c(OCC)c2)ccc1N | inactive | 
17 | O=C(CCC(=O)c1ccc(Oc2ccccc2)cc1)Nc1cccc(Cl)c1Cl | inconclusive: 18.4 µM [falling, single point] | 
18 | CCc1nnc(NC(=O)c2ccc(F)c(S(=O)(=O)N3CCCCC3)c2)s1 | inconclusive: 14.6 µM [falling, partial curve, poor fit] | 
19 | CC(=O)c1cccc(NC(=O)c2noc3c2CSc2ccccc2-3)c1 | inactive | 
20 | COc1ccc(NC(=O)c2c(N)c(C(=O)c3ccc(C)cc3)n3ccccc23)cc1OC | inconclusive: 32.6 µM [falling, single point] | 
21 | Cc1cnc(NC(=O)Nc2ccc(OCc3ccccc3)cc2)c(Br)c1 | inconclusive: 3.66 µM [activator, partial curve, poor fit] | 
22 | Cc1ccc(-c2[nH]c3ccccc3c2SCCNC(=O)c2ccc(S(=O)(=O)N3CCOCC3)cc2)cc1 | inconclusive: 29.1 µM [falling, single point] and inconclusive: 6.51 µM [falling, single point] | 

Individual results from above:
COc1ccc(C(=O)/C=C2/C(=O)Nc3ccccc32)cc1 – Potency: inactive
Cn1c(=NC(=O)CCS(=O)(=O)c2ccccc2)sc2cc(F)ccc21 – Potency: inconclusive: 2.59 µM [activator, full curve]
COc1ccc(NC(=O)c2c(N)c(C(=O)c3ccc(C)cc3)n3ccccc23)cc1OC – Potency: inconclusive: 32.6 µM [falling, single point]

(listing goes on)

Row | Structure (SMILES) | Potency | activity change, negative = inhibition
23 | CN(C)c1ccc(C(=O)NCC2CCCO2)cc1 (stereo unspecified) | inconclusive: 16.4 µM [activator, partial curve] | 
24 | COc1cccc(/C=C/c2n[nH]c(=O)c(C#N)c2C)c1 | inconclusive: 16.4 µM [activator, partial curve, poor fit] | 
25 | Cc1cccc2c1-c1sc(C(=O)NCCc3ccc(Cl)cc3)cc1CO2 | active: 23.1 µM | 
26 | Cn1cc(S(=O)(=O)Nc2ccc(OC(F)(F)F)cc2)c(=O)n(C)c1=O | inactive | 
27 | CN(C)c1ccc(-c2cc[nH]c(=O)c2N)cc1 | inactive | 
28 | COC(C[C@H]1O[C@H]1[C@H](O)[C@@H](C)OCc1ccccc1)OC | inconclusive: 2.06 µM [activator, full curve, poor fit] | 
29 | C=CCNC(=O)CC12CC3CC(C1)CC(CC(=O)NCC=C)(C3)C2 | inconclusive: 5.17 µM [activator, partial curve, poor fit] | 
30 | Cc1nn(-c2nc3ccccc3s2)c(N)c1-c1ccccc1 | inconclusive: 20.6 µM [activator, single point] | 
31 | COc1ccc(NC(=O)c2csc3c2CCCC3)cc1 | inconclusive: 8.2 µM [activator, partial curve] | 
32 | O=C(C1CCCN(S(=O)(=O)c2ccccc2)C1)N1CCCc2ccccc21 (stereo unspecified) | inconclusive: 18.4 µM [falling, partial curve, poor fit] | 
33 | N#Cc1cc(-c2ccc(Cl)cc2)cnc1Sc1ccc(F)cc1 | inconclusive: 29.1 µM [falling, partial curve, poor fit] | 
34 | COc1ccc(-c2nnc(NC(=O)c3ccc(S(=O)(=O)N4COCC4(C)C)cc3)o2)cc1 | active: 18.4 µM | 
35 | Cc1ccc(-n2c(SCC(=O)N3CC(=O)Nc4ccccc43)nc3ccccc3c2=O)cc1C | inconclusive: 7.31 µM [falling, partial curve] | 
36 | Oc1ccc(CN2CCc3ccccc3C2)c2cccnc12 | active: 5.8 µM | 
37 | O=C(Nc1ccc(Cl)c(S(=O)(=O)N2CCOCC2)c1)c1cc(-c2ccccn2)nc2ccccc12 | inconclusive: 25.9 µM [falling, partial curve, poor fit] | 
38 | COc1cccc(CNC(=O)C(C)n2ccc3cc(S(=O)(=O)N4CCCCCC4)ccc32)c1 (stereo unspecified) | inconclusive: 29.1 µM [falling, single point] | 
39 | CCc1ccc(N2CCN(S(=O)(=O)CC34CCC(CC3=O)C4(C)C)CC2)cc1 (stereo unspecified) | inconclusive: 29.1 µM [falling, single point] | 
40 | c1ccc(COc2ccc(CN3CCN(c4ccccn4)CC3)cc2)cc1 | inconclusive: 4.11 µM [activator, partial curve] | 
41 | CC1(C)CC(=O)c2sc(NC(=O)c3ccc4ncsc4c3)nc2C1 | inconclusive: 4.11 µM [activator, full curve, poor fit] | 
42 | Cc1cc(-c2ccccc2)cc(=O)[nH]1 | inactive | 
43 | CCN(CCCNC(=O)c1cc2cc3cc(OC)ccc3nc2s1)c1cccc(C)c1 | active: 25.9 µM | 
44 | Cc1cc2c(cc3c(SCc4ccc(Cl)cc4)nnc(C)n32)o1 | inconclusive: 0.164 µM [activator, full curve, poor fit] | 

Row | Structure (SMILES) | Potency | activity change, negative = inhibition
45 | CCN(CC(=O)Nc1ccc(NC(C)=O)cc1)C(=O)Cc1cccc2ccccc12 | inconclusive: 5.8 µM [falling, partial curve, poor fit] | 
46 | O=S(=O)(c1ccc(Cl)nc1)N1CCCC1 | inactive | 
47 | Nc1nc(NCCO)nc(NC2CCCCC2)c1[N+](=O)[O-] | inconclusive: 9.2 µM [falling, partial curve, poor fit] | 
48 | CCOc1ccc(S(=O)(=O)N2CCN(C(=O)c3cc(C4CC4)nn3-c3ccccc3)CC2)cc1 | inconclusive: 32.6 µM [falling, single point] | 
49 | O=C(COc1ncnc2sccc12)Nc1cccc(S(=O)(=O)N2CCCC2)c1 | inconclusive: 18.4 µM [falling, partial curve, poor fit] | 
50 | O=C(CC(SCCO)c1ccc2c(c1)OCO2)c1cccs1 (stereo unspecified) | inconclusive: 5.8 µM [activator, partial curve] | 
51 | Oc1ccccc1N1CCN(C(=S)Nc2ccc(SC(F)F)cc2)CC1 | inconclusive: 20.6 µM [falling, single point] | 
52 | CCc1ccc(/C=C2/SC(=S)N(CCC(=O)Nc3cccc(C(=O)O)c3)C2=O)cc1 | inconclusive: 6.51 µM [activator, single point] | 
53 | Cc1ccc(-c2nc3sccn3c2Nc2ccccc2C)cc1 | inactive | 
54 | CCOC(=O)C1=C(N)Oc2cc(O)ccc2C1c1ccccc1 (stereo unspecified) | inconclusive: 14.6 µM [falling, partial curve] | 
55 | Cc1ccc(C)c(N=Nc2nc3ccccc3n2C)c1 | inconclusive: 3.66 µM [activator, partial curve, poor fit] | 
56 | Cn1c(SCC(=O)Nc2ccccc2)nc2ccccc2c1=O | active: 20.6 µM | 
57 | CC1=CC(C)(C)N2C(=O)C(=Nc3ccc(O)cc3)c3cccc1c32 | inactive | 
58 | NC(=S)N/N=C1\CCSc2ccc(Cl)cc21 | inconclusive: 13 µM [falling, partial curve, poor fit] | 
59 | Cc1ccc(F)c(C2C3C=CCCC3(C)C(=O)N2Cc2ccccc2)c1 (stereo unspecified) | inconclusive: 32.6 µM [falling, partial curve, poor fit] | 
60 | NCCNC(=O)c1c(NC(=O)c2ccccc2)sc2c1CCCC2 | inconclusive: 10.3 µM [activator, partial curve, poor fit] | 
61 | Cc1ccc(NS(=O)(=O)c2ccc3c4c(cccc24)C(=O)N3)c(C)c1 | inconclusive: 16.4 µM [falling, single point] | 
62 | COc1ccc(CC(=O)NC(C)CCc2ccccc2)cc1OC (stereo unspecified) | inconclusive: 32.6 µM [falling, single point] | 
63 | Cc1ccc(C(NC(=O)Cc2cccs2)C(=O)Nc2ccc(C(C)C)cc2)cc1 (stereo unspecified) |  | inactive: 6.5% [at 9.27 µM]
64 | Cc1cccc(-c2nc3c4ccccc4nc(NCc4ccccc4Cl)n3n2)c1 | inconclusive: 4.61 µM [activator, full curve] | 
65 | CN(c1ccccc1)S(=O)(=O)c1cc(C(=O)N2CCN(c3ncccn3)CC2)ccc1Cl | inconclusive: 3.66 µM [activator, partial curve, poor fit] | 
66 | COc1ccc2c(c1)c1c(c(=O)n(-c3cccc(C)c3)c(=O)n1CC(=O)Nc1c(C)cc(C)cc1C)n2C | inconclusive: 6.51 µM [activator, single point] | 
